# Some of the results follow.
# How the values were obtained:
# Experiment in all cases: glycan array binding signal (z-score within array); higher = stronger binding
# Settings in all cases: glycan notation: IUPAC condensed, linker removed
# [1] = target: Gal(b1-4)GlcNAc(b1-3)Gal(b1-4)GlcNAc(b1-2)[Gal(b1-4)GlcNAc(b1-3)Gal(b1-4)GlcNAc(b1-6)]Man(a1-6)[Gal(b1-4)GlcNAc(b1-3)Gal(b1-4)GlcNAc(b1-2)Man(a1-3)]Man(b1-4)GlcNAc(b1-4)GlcNAc
# Procedure, shortened: (§1)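 The binding signal is a Z-score computed within each array and averaged over linkers. Arrays of the same protein sequence at different concentrations or buffers were also averaged together. Data originate from 3228 arrays in the Consortium for Functional Glycomics database, kept only where the protein sequence was available.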
# [2] = target: Gal(b1-4)GlcNAc(b1-3)Gal(b1-4)GlcNAc(b1-2)[Gal(b1-4)GlcNAc(b1-3)Gal(b1-4)GlcNAc(b1-6)]Man(a1-6)[Gal(b1-4)GlcNAc(b1-3)Gal(b1-4)GlcNAc(b1-2)Man(a1-3)]Man(b1-4)GlcNAc(b1-4)[Fuc(a1-6)]GlcNAc
# Procedure, shortened: as §1
# [3] = target: Gal(b1-4)GlcNAc(b1-3)Gal(b1-4)GlcNAc(b1-3)Gal(b1-4)GlcNAc
# Procedure, shortened: as §1
# [4] = target: Gal(b1-4)GlcNAc(b1-3)Gal(b1-4)GlcNAc(b1-3)Gal(b1-4)GlcNAc(b1-2)Man(a1-3)[Gal(b1-4)GlcNAc(b1-3)Gal(b1-4)GlcNAc(b1-3)Gal(b1-4)GlcNAc(b1-2)Man(a1-6)]Man(b1-4)GlcNAc(b1-4)GlcNAc
# Procedure, shortened: as §1
# [5] = target: Gal(b1-4)GlcNAc(b1-3)Gal(b1-4)GlcNAc(b1-3)Gal(b1-4)GlcNAc(b1-2)Man(a1-3)[Gal(b1-4)GlcNAc(b1-3)Gal(b1-4)GlcNAc(b1-3)Gal(b1-4)GlcNAc(b1-2)Man(a1-6)]Man(b1-4)GlcNAc(b1-4)[Fuc(a1-6)]GlcNAc
# Procedure, shortened: as §1
# [6] = target: Gal(b1-4)GlcNAc(b1-3)Gal(b1-4)GlcNAc(b1-3)Gal(b1-4)GlcNAc(b1-2)[Gal(b1-4)GlcNAc(b1-3)Gal(b1-4)GlcNAc(b1-3)Gal(b1-4)GlcNAc(b1-6)]Man(a1-6)[Gal(b1-4)GlcNAc(b1-3)Gal(b1-4)GlcNAc(b1-3)Gal(b1-4)GlcNAc(b1-2)Man(a1-3)]Man(b1-4)GlcNAc(b1-4)[Fuc(a1-6)]GlcNAc
# Procedure, shortened: as §1
# [7] = target: Gal(b1-4)GlcNAc(b1-3)Gal(b1-4)GlcNAc(b1-3)Gal(b1-4)GlcNAc(b1-3)Gal(b1-4)GlcNAc(b1-2)Man(a1-3)[Gal(b1-4)GlcNAc(b1-3)Gal(b1-4)GlcNAc(b1-3)Gal(b1-4)GlcNAc(b1-3)Gal(b1-4)GlcNAc(b1-2)Man(a1-6)]Man(b1-4)GlcNAc(b1-4)GlcNAc
# Procedure, shortened: as §1
# [8] = target: Gal(b1-4)GlcNAc(b1-3)Gal(b1-4)GlcNAc(b1-3)Gal(b1-4)GlcNAc(b1-3)Gal(b1-4)GlcNAc(b1-2)Man(a1-3)[Gal(b1-4)GlcNAc(b1-3)Gal(b1-4)GlcNAc(b1-3)Gal(b1-4)GlcNAc(b1-3)Gal(b1-4)GlcNAc(b1-2)Man(a1-6)]Man(b1-4)GlcNAc(b1-4)[Fuc(a1-6)]GlcNAc
# Procedure, shortened: as §1
# [9] = target: Gal(b1-4)GlcNAc(b1-3)Gal(b1-4)GlcNAc(b1-3)Gal(b1-4)GlcNAc(b1-3)Gal(b1-4)GlcNAc(b1-2)[Gal(b1-4)GlcNAc(b1-3)Gal(b1-4)GlcNAc(b1-3)Gal(b1-4)GlcNAc(b1-3)Gal(b1-4)GlcNAc(b1-6)]Man(a1-6)[Gal(b1-4)GlcNAc(b1-3)Gal(b1-4)GlcNAc(b1-3)Gal(b1-4)GlcNAc(b1-3)Gal(b1-4)GlcNAc(b1-2)Man(a1-3)]Man(b1-4)GlcNAc(b1-4)[Fuc(a1-6)]GlcNAc
# Procedure, shortened: as §1
# [10] = target: Gal(b1-4)GlcNAc(b1-3)Gal(b1-4)GlcNAc(b1-3)Gal(b1-4)GlcNAc(b1-3)Gal(b1-4)GlcNAc(b1-3)Gal(b1-4)GlcNAc(b1-2)Man(a1-3)[Gal(b1-4)GlcNAc(b1-3)Gal(b1-4)GlcNAc(b1-3)Gal(b1-4)GlcNAc(b1-3)Gal(b1-4)GlcNAc(b1-3)Gal(b1-4)GlcNAc(b1-2)Man(a1-6)]Man(b1-4)GlcNAc(b1-4)GlcNAc
# Procedure, shortened: as §1
# [11] = target: Gal(b1-4)GlcNAc(b1-3)Gal(b1-4)GlcNAc(b1-3)Gal(b1-4)GlcNAc(b1-3)Gal(b1-4)GlcNAc(b1-3)Gal(b1-4)GlcNAc(b1-2)Man(a1-3)[Gal(b1-4)GlcNAc(b1-3)Gal(b1-4)GlcNAc(b1-3)Gal(b1-4)GlcNAc(b1-3)Gal(b1-4)GlcNAc(b1-3)Gal(b1-4)GlcNAc(b1-2)Man(a1-6)]Man(b1-4)GlcNAc(b1-4)[Fuc(a1-6)]GlcNAc
# Procedure, shortened: as §1
# [12] = target: Gal(b1-4)GlcNAc(b1-3)Gal(b1-4)GlcNAc(b1-3)Gal(b1-4)GlcNAc(b1-3)Gal(b1-4)GlcNAc(b1-3)Gal(b1-4)GlcNAc(b1-2)[Gal(b1-4)GlcNAc(b1-3)Gal(b1-4)GlcNAc(b1-3)Gal(b1-4)GlcNAc(b1-3)Gal(b1-4)GlcNAc(b1-3)Gal(b1-4)GlcNAc(b1-6)]Man(a1-6)[Gal(b1-4)GlcNAc(b1-3)Gal(b1-4)GlcNAc(b1-3)Gal(b1-4)GlcNAc(b1-3)Gal(b1-4)GlcNAc(b1-3)Gal(b1-4)GlcNAc(b1-2)Man(a1-3)]Man(b1-4)GlcNAc(b1-4)[Fuc(a1-6)]GlcNAc
# Procedure, shortened: as §1
# [13] = target: Gal(b1-4)GlcNAc(b1-3)Gal(b1-4)GlcNAc(b1-3)Gal(b1-4)GlcNAc(b1-3)Gal(b1-4)GlcNAc(b1-3)Gal(b1-4)GlcNAc(b1-3)Gal(b1-4)GlcNAc(b1-2)Man(a1-3)[Gal(b1-4)GlcNAc(b1-3)Gal(b1-4)GlcNAc(b1-3)Gal(b1-4)GlcNAc(b1-3)Gal(b1-4)GlcNAc(b1-3)Gal(b1-4)GlcNAc(b1-3)Gal(b1-4)GlcNAc(b1-2)Man(a1-6)]Man(b1-4)GlcNAc(b1-4)GlcNAc
# Procedure, shortened: as §1
# [14] = target: Gal(b1-4)GlcNAc(b1-3)Gal(b1-4)GlcNAc(b1-3)GalNAc
# Procedure, shortened: as §1
# [15] = target: Gal(b1-4)GlcNAc(b1-3)Gal(b1-4)GlcNAc(b1-3)[Gal(b1-4)GlcNAc(b1-3)Gal(b1-4)GlcNAc(b1-6)]GalNAc
# Procedure, shortened: as §1
# [16] = target: Gal(b1-4)GlcNAc(b1-3)Gal(b1-4)GlcNAc(b1-6)[Gal(b1-3)]GalNAc
# Procedure, shortened: as §1
# [17] = target: Gal(b1-4)GlcNAc(b1-3)Gal(b1-4)[Fuc(a1-3)]GlcNAc(b1-3)Gal(b1-4)[Fuc(a1-3)]GlcNAc
# Procedure, shortened: as §1
# [18] = target: Gal(b1-4)GlcNAc(b1-3)GalNAc
# Procedure, shortened: as §1
# [19] = target: Gal(b1-4)GlcNAc(b1-3)[Fuc(a1-3)GlcNAc(b1-6)]Gal(b1-4)Glc
# Procedure, shortened: as §1
# [20] = target: Gal(b1-4)GlcNAc(b1-3)[Gal(b1-4)GlcNAc(b1-6)]Gal(b1-4)GlcNAc
# Procedure, shortened: as §1
# [21] = target: Gal(b1-4)GlcNAc(b1-3)[GlcNAc(b1-6)]Gal(b1-4)GlcNAc
# Procedure, shortened: as §1
# [22] = target: Gal(b1-4)GlcNAc(b1-6)Gal(b1-4)GlcNAc
# Procedure, shortened: as §1
# [23] = target: Gal(b1-4)GlcNAc(b1-6)GalNAc
# Procedure, shortened: as §1
# [24] = target: Gal(b1-4)GlcNAc(b1-6)[Gal(b1-3)]GalNAc
# Procedure, shortened: as §1
# [25] = target: Gal(b1-4)GlcNAc(b1-6)[Gal(b1-4)GlcNAc(b1-3)]GalNAc
# Procedure, shortened: as §1
# [26] = target: Gal(b1-4)GlcNAc6P
# Procedure, shortened: as §1
# [27] = target: Gal(b1-6)Gal
# Procedure, shortened: as §1
# [28] = target: Gal3S(b1-3)GalNAc
# Procedure, shortened: as §1
# [29] = target: Gal3S(b1-3)GlcNAc
# Procedure, shortened: as §1
# [30] = target: Gal3S(b1-3)[Fuc(a1-4)]GlcNAc
# Procedure, shortened: as §1
# [31] = target: Gal3S(b1-4)Glc
# Procedure, shortened: as §1
# [32] = target: Gal3S(b1-4)Glc6S
# Procedure, shortened: as §1
# [33] = target: Gal3S(b1-4)GlcNAc
# Procedure, shortened: as §1
# [34] = target: Gal3S(b1-4)[Fuc(a1-3)]Glc6S
# Procedure, shortened: as §1
# [35] = target: Gal3S(b1-4)[Fuc(a1-3)]GlcNAc
# Procedure, shortened: as §1
# [36] = target: Gal3S(b1-4)[Fuc(a1-3)]GlcNAc6S
# Procedure, shortened: as §1
# [37] = target: Gal3S4S(b1-4)GlcNAc
# Procedure, shortened: as §1
binder,measurement,setting,value
Gs78B-bfa-542-29-542 (Bacteroides fragilis) (protein) SEDINRNPLLPTKEDEKMDGVIYGAYLPNLEKSVIPIGTASESTEPVNRYQIGVNLAGDAWAGYMSPRDNKFNGSKNFTNYFMYENWVNYVYSFMVTDVYSPWMQIKRISQDEGTRNDEIYALAQIIKIAALHRTTDMFGPIPYSQVGKGSFKVAYDSQESVYRSFLKELEEAVQTLDDYSNKSKEVLPAFDIVYNGDVNKWMRFANSLMLRLAIRVRFADAGLAKEYAEKAVKHPAGLINSKELAAQMGKGAGLQMKNPLKVINEEYNDTRMGATIYSYLAGYNDARAAVYFVKNNGFKAVRCGIAKSGDAYNGFTRPNVHEDDPLYWMKASEVCFLKAEGALAGFDMGGSAGDFYNAGIRMSFSENGLDNSSAETYLKDSTRKPANYTDTSNGELSANAPSSITIRWENGATEEEKLERIITQKYLAIFPNGQEAWTEWRRTGYPRQIVVAENKTNSAVLIGNGYDLGGVRRLPYPRTEYEQNGENLHNAISQYLGGVDNAATKVWWDKKSK,glycan array binding signal (z-score),[1],2.53
same,glycan array binding signal (z-score),[2],3.42
same,glycan array binding signal (z-score),[3],0.792
same,glycan array binding signal (z-score),[4],2.01
same,glycan array binding signal (z-score),[5],3.12
same,glycan array binding signal (z-score),[6],1.06
same,glycan array binding signal (z-score),[7],0.353
same,glycan array binding signal (z-score),[8],1.23
same,glycan array binding signal (z-score),[9],1.24
same,glycan array binding signal (z-score),[10],2.16
same,glycan array binding signal (z-score),[11],2.37
same,glycan array binding signal (z-score),[12],0.95
same,glycan array binding signal (z-score),[13],0.959
same,glycan array binding signal (z-score),[14],1.04
same,glycan array binding signal (z-score),[15],1.47
same,glycan array binding signal (z-score),[16],2.1
same,glycan array binding signal (z-score),[17],-0.307
same,glycan array binding signal (z-score),[18],-0.394
same,glycan array binding signal (z-score),[19],1.35
same,glycan array binding signal (z-score),[20],2.05
same,glycan array binding signal (z-score),[21],0.076
same,glycan array binding signal (z-score),[22],0.329
same,glycan array binding signal (z-score),[23],1.05
same,glycan array binding signal (z-score),[24],0.189
same,glycan array binding signal (z-score),[25],0.453
same,glycan array binding signal (z-score),[26],2.33
same,glycan array binding signal (z-score),[27],-0.391
same,glycan array binding signal (z-score),[28],-0.403
same,glycan array binding signal (z-score),[29],-0.834
same,glycan array binding signal (z-score),[30],0.253
same,glycan array binding signal (z-score),[31],-0.33
same,glycan array binding signal (z-score),[32],-0.778
same,glycan array binding signal (z-score),[33],-0.715
same,glycan array binding signal (z-score),[34],0.757
same,glycan array binding signal (z-score),[35],-0.801
same,glycan array binding signal (z-score),[36],-0.473
same,glycan array binding signal (z-score),[37],-0.708

# For reference, some entries already given:
binder,measurement,setting,value
Gs78B-bfa-542-29-542 (Bacteroides fragilis) (protein) SEDINRNPLLPTKEDEKMDGVIYGAYLPNLEKSVIPIGTASESTEPVNRYQIGVNLAGDAWAGYMSPRDNKFNGSKNFTNYFMYENWVNYVYSFMVTDVYSPWMQIKRISQDEGTRNDEIYALAQIIKIAALHRTTDMFGPIPYSQVGKGSFKVAYDSQESVYRSFLKELEEAVQTLDDYSNKSKEVLPAFDIVYNGDVNKWMRFANSLMLRLAIRVRFADAGLAKEYAEKAVKHPAGLINSKELAAQMGKGAGLQMKNPLKVINEEYNDTRMGATIYSYLAGYNDARAAVYFVKNNGFKAVRCGIAKSGDAYNGFTRPNVHEDDPLYWMKASEVCFLKAEGALAGFDMGGSAGDFYNAGIRMSFSENGLDNSSAETYLKDSTRKPANYTDTSNGELSANAPSSITIRWENGATEEEKLERIITQKYLAIFPNGQEAWTEWRRTGYPRQIVVAENKTNSAVLIGNGYDLGGVRRLPYPRTEYEQNGENLHNAISQYLGGVDNAATKVWWDKKSK,glycan array binding signal (z-score),[10],2.16
same,glycan array binding signal (z-score),[11],2.37
